Test results as given in the supplement of paper PMC7661543.
Differences between knockout arms are mostly noise.

Tested on: HCC-38
Test: relative cell number vs DMSO control (72 h) (% of DMSO); higher = less growth inhibition (more cells)
Method: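 QMAP-Seq: a pool of 5 breast cancer cell lines (ZR-75-1, SKBR3, HCC-38, MDA-MB-231, BT-20), each carrying 12 doxycycline-inducible Cas9 sgRNA perturbations (11 knockouts plus non-targeting sgNT), was treated with compounds for 72 h at four 10-fold doses (10 nM-10 uM or 1 nM-1 uM range). Barcodes were amplified and sequenced, and cell number was interpolated from 293T spike-in standard curves. The result is expressed as % of the median of DMSO wells. Two biological replicates.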

C[C@]12CC[C@@H]3c4ccc(O)cc4C[C@@H](CCCCCCCCC[S+]([O-])CCCC(F)(F)C(F)(F)F)[C@H]3[C@@H]1CC[C@@H]2O (some centres not stated) [Fulvestrant]
Settings	relative cell number
sgRNA knockout: sgATF3, 10 nM	98.7
sgRNA knockout: sgATF3, 100 nM	103
sgRNA knockout: sgATF3, 1000 nM	110
sgRNA knockout: sgATF3, 10000 nM	92.1
sgRNA knockout: sgATF4, 10 nM	88.1
sgRNA knockout: sgATF4, 100 nM	101
sgRNA knockout: sgATF4, 1000 nM	109
sgRNA knockout: sgATF4, 10000 nM	93.1
sgRNA knockout: sgATF6, 10 nM	93.2
sgRNA knockout: sgATF6, 100 nM	85
sgRNA knockout: sgATF6, 1000 nM	88.6
sgRNA knockout: sgATF6, 10000 nM	108
sgRNA knockout: sgATG7, 10 nM	81.4
sgRNA knockout: sgATG7, 100 nM	92.3
sgRNA knockout: sgATG7, 1000 nM	104
sgRNA knockout: sgATG7, 10000 nM	97.8
sgRNA knockout: sgERN1, 10 nM	85.4
sgRNA knockout: sgERN1, 100 nM	108
sgRNA knockout: sgERN1, 1000 nM	103
sgRNA knockout: sgERN1, 10000 nM	94
sgRNA knockout: sgHSF1, 10 nM	101
sgRNA knockout: sgHSF1, 100 nM	95.54
sgRNA knockout: sgHSF1, 1000 nM	97.8
sgRNA knockout: sgHSF1, 10000 nM	111
sgRNA knockout: sgHSF2, 10 nM	92.1
sgRNA knockout: sgHSF2, 100 nM	97.8
sgRNA knockout: sgHSF2, 1000 nM	112
sgRNA knockout: sgHSF2, 10000 nM	106
sgRNA knockout: sgKEAP1, 10 nM	102
sgRNA knockout: sgKEAP1, 100 nM	98.5
sgRNA knockout: sgKEAP1, 1000 nM	86.1
sgRNA knockout: sgKEAP1, 10000 nM	98.52
sgRNA knockout: sgNFE2L2, 10 nM	81.7
sgRNA knockout: sgNFE2L2, 100 nM	107
sgRNA knockout: sgNFE2L2, 1000 nM	108
sgRNA knockout: sgNFE2L2, 10000 nM	83.9
sgRNA knockout: sgSLC35F2, 10 nM	104
sgRNA knockout: sgSLC35F2, 100 nM	93.3
sgRNA knockout: sgSLC35F2, 1000 nM	103
sgRNA knockout: sgSLC35F2, 10000 nM	88.6
sgRNA knockout: sgXBP1, 10 nM	86.9
sgRNA knockout: sgXBP1, 100 nM	106
sgRNA knockout: sgXBP1, 1000 nM	106
sgRNA knockout: sgXBP1, 10000 nM	88.6

OCCn1cc(-c2ccc3c(c2)CC/C3=N\O)c(-c2ccncc2)n1 [GDC0879]
Settings	relative cell number
sgRNA knockout: sgATF3, 10 nM	107
sgRNA knockout: sgATF3, 100 nM	111
sgRNA knockout: sgATF3, 1000 nM	137
sgRNA knockout: sgATF3, 10000 nM	112
sgRNA knockout: sgATF4, 10 nM	97.7
sgRNA knockout: sgATF4, 100 nM	113.9
sgRNA knockout: sgATF4, 1000 nM	136
sgRNA knockout: sgATF4, 10000 nM	107
sgRNA knockout: sgATF6, 10 nM	112
sgRNA knockout: sgATF6, 100 nM	116
sgRNA knockout: sgATF6, 1000 nM	153
sgRNA knockout: sgATF6, 10000 nM	119
sgRNA knockout: sgATG7, 10 nM	111
sgRNA knockout: sgATG7, 100 nM	117.15
sgRNA knockout: sgATG7, 1000 nM	131
sgRNA knockout: sgATG7, 10000 nM	105
sgRNA knockout: sgERN1, 10 nM	105
sgRNA knockout: sgERN1, 100 nM	127
sgRNA knockout: sgERN1, 1000 nM	122
sgRNA knockout: sgERN1, 10000 nM	110
sgRNA knockout: sgHSF1, 10 nM	105
sgRNA knockout: sgHSF1, 100 nM	124
sgRNA knockout: sgHSF1, 1000 nM	129
sgRNA knockout: sgHSF1, 10000 nM	123
sgRNA knockout: sgHSF2, 10 nM	114
sgRNA knockout: sgHSF2, 100 nM	124
sgRNA knockout: sgHSF2, 1000 nM	135
sgRNA knockout: sgHSF2, 10000 nM	125
sgRNA knockout: sgKEAP1, 10 nM	106
sgRNA knockout: sgKEAP1, 100 nM	119
sgRNA knockout: sgKEAP1, 1000 nM	148
sgRNA knockout: sgKEAP1, 10000 nM	130
sgRNA knockout: sgNFE2L2, 10 nM	101
sgRNA knockout: sgNFE2L2, 100 nM	114.66
sgRNA knockout: sgNFE2L2, 1000 nM	135
sgRNA knockout: sgNFE2L2, 10000 nM	100
sgRNA knockout: sgSLC35F2, 10 nM	112
sgRNA knockout: sgSLC35F2, 100 nM	122
sgRNA knockout: sgSLC35F2, 1000 nM	131
sgRNA knockout: sgSLC35F2, 10000 nM	112
sgRNA knockout: sgXBP1, 10 nM	108
sgRNA knockout: sgXBP1, 100 nM	117
sgRNA knockout: sgXBP1, 1000 nM	130
sgRNA knockout: sgXBP1, 10000 nM	110

CS(=O)(=O)N1CCN(Cc2cc3nc(-c4cccc5[nH]ncc45)nc(N4CCOCC4)c3s2)CC1 [GDC0941]
Settings	relative cell number
sgRNA knockout: sgATF3, 10 nM	94.4
sgRNA knockout: sgATF3, 100 nM	93.4
sgRNA knockout: sgATF3, 1000 nM	81.2
sgRNA knockout: sgATF3, 10000 nM	38.8
sgRNA knockout: sgATF4, 10 nM	79.9
sgRNA knockout: sgATF4, 100 nM	108
sgRNA knockout: sgATF4, 1000 nM	82.8
sgRNA knockout: sgATF4, 10000 nM	34.4
sgRNA knockout: sgATF6, 10 nM	99.8
sgRNA knockout: sgATF6, 100 nM	94.3
sgRNA knockout: sgATF6, 1000 nM	71.5
sgRNA knockout: sgATF6, 10000 nM	43.6
sgRNA knockout: sgATG7, 10 nM	80
sgRNA knockout: sgATG7, 100 nM	104
sgRNA knockout: sgATG7, 1000 nM	77.6
sgRNA knockout: sgATG7, 10000 nM	39.9
sgRNA knockout: sgERN1, 10 nM	86.5
sgRNA knockout: sgERN1, 100 nM	98.8
sgRNA knockout: sgERN1, 1000 nM	70.1
sgRNA knockout: sgERN1, 10000 nM	39.8
sgRNA knockout: sgHSF1, 10 nM	96.9
sgRNA knockout: sgHSF1, 100 nM	82.1
sgRNA knockout: sgHSF1, 1000 nM	70
sgRNA knockout: sgHSF1, 10000 nM	39
sgRNA knockout: sgHSF2, 10 nM	83.7
sgRNA knockout: sgHSF2, 100 nM	109
sgRNA knockout: sgHSF2, 1000 nM	73.2
sgRNA knockout: sgHSF2, 10000 nM	35.1
sgRNA knockout: sgKEAP1, 10 nM	118
sgRNA knockout: sgKEAP1, 100 nM	84.5
sgRNA knockout: sgKEAP1, 1000 nM	72
sgRNA knockout: sgKEAP1, 10000 nM	48.1
sgRNA knockout: sgNFE2L2, 10 nM	79.5
sgRNA knockout: sgNFE2L2, 100 nM	103
sgRNA knockout: sgNFE2L2, 1000 nM	77.7
sgRNA knockout: sgNFE2L2, 10000 nM	33.6
sgRNA knockout: sgSLC35F2, 10 nM	82.1
sgRNA knockout: sgSLC35F2, 100 nM	98.3
sgRNA knockout: sgSLC35F2, 1000 nM	82.86
sgRNA knockout: sgSLC35F2, 10000 nM	39
sgRNA knockout: sgXBP1, 10 nM	82.2
sgRNA knockout: sgXBP1, 100 nM	108
sgRNA knockout: sgXBP1, 1000 nM	85.3
sgRNA knockout: sgXBP1, 10000 nM	38.3
